Patent publication US8178689B2, “Tricyclic compounds” (Hoffman-La Roche Inc., priority 2010, dated 2012)
At least one compound was matched to its structure with a doubt left.

Target: T1, Recombinant human liver GK1 (GST-GK) (Homo sapiens, UniProt P35557)
T1 construct: made in house; host or cells: E. coli
T1 sequence (P35557 1-466 isoform P35557-2): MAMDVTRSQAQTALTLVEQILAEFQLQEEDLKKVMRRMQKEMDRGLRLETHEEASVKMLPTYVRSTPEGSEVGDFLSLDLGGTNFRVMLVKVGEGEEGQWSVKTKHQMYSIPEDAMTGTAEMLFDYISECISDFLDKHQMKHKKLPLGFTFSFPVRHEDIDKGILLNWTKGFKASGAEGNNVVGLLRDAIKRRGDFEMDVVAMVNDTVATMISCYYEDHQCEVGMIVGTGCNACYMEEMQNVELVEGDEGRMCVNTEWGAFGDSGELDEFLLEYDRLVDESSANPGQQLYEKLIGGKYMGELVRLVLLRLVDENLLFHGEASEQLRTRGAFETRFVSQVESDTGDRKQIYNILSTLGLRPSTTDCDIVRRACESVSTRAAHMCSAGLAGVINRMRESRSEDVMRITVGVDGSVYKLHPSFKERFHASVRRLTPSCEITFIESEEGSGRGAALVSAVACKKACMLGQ
Assay: In vitro glucokinase activity (G6PDH-coupled NADH generation assay)
Format: biochemical
Design: unit not given here
Conditions: concentration of activator that produced a 50% increase in the activity of GK; 5 mM D-glucose, 30° C., pH 7.1, 10% DMSO
Method: Glucokinase In Vitro Assay Protocol: Glucokinase (GK) was assayed by coupling the production of glucose-6-phosphate to the generation of NADH with glucose-6-phosphate dehydrogenase (G6PDH, 0.75-1 kunits/mg; Boehringer Mannheim, Indianapolis, Ind.) from Leuconostoc mesenteroides as the coupling enzyme:
Recombinant human liver GK1 was expressed in E. coli as a glutathione S-transferase fusion protein (GST-GK) [Liang et al, 1995]and was purified by chromatography over a glutathione-Sepharose 4B affinity column using the procedure provided by the manufacturer (Amersham Pharmacia Biotech, Piscataway, N.J.).
The assay was conducted at 30° C. in a flat bottom 96-well tissue culture plate from Costar (Cambridge, Mass.) with a final incubation volume of 120 μL. […]
After addition of enzyme, the increase in optical density (OD) at 340 nm was monitored spectrophotometrically to determine the rate of change (OD340 per min). The GK activity (OD340/min) in control wells (10% DMSO minus GK activators) was compared with the activity in wells containing test GK activators, and the concentration of activator that produced a 50% increase in the activity of GK, i.e., the SC1.5:0.1, was calculated. […]

CC(C)(O)Cn1ccc(NC(=O)[C@H](CC2CCCC2)N2CC3=C(Oc4ccccc4C3)C2=O)n1 [Example 26, (S)-3-Cyclopentyl-N-[1-(2-hydroxy-2-methyl-propyl)-1H-pyrazol-3-yl]-2-(3-oxo-3,9-dihydro-1H-chromeno[2,3-c]pyrrol-2-yl)-propionamide]
SC 1.5:0.1: 1.181
